PubChem BioAssay AID686938 – Drosophila RNAi Screening Center – 2013

Assay: 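Fly genes required for calcium entry once internal stores are emptied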 (primary screen)
Cells: Drosophila S2R+ cells
Reagent: long dsRNA against Drosophila genes, about 0.25 µg dsRNA per well, roughly 10,000 cells
Time to read-out: 5 days of knock-down before the calcium assay
Challenge: thapsigargin (SERCA pump blocker) to empty calcium stores; entry signal taken 4 min after adding it
Measurement: 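Per-well fluo-4 fluorescence in two replicates, unnormalised, measured in resting cells and 4 min after store depletion by the SERCA blocker thapsigargin; ratio of the two present in few wells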
Direction: calcium entry signal: higher = stronger calcium signal after store depletion; resting calcium signal: higher = higher resting calcium signal
Units: calcium entry signal in fluorescence units; resting calcium signal in fluorescence units
Active means: 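Hit if the duplicate-averaged plate z-score for entry over resting signal is under −3; wells with weak total dye signal (Fmax z < −2) or more than 5 off-targets removed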
Calls: active = strongly reduced calcium entry; inactive = no strong reduction
In all, the deposit lists about 23,000 reagents; below is an unselected part of those with a known target gene and a result. In the full data, 75 (0.33%) got an active call. 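Raw plate signals without normalisation; calls rest on plate z-scores that were not deposited; ratio present for only 364 wells.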 Unmarked entries are inactive. Reagent sequences are not shown. The record does not give: the dose of the treatment.

{"gene knocked down": "Sp7 (GeneID 40918)", "DRSC id": "DRSC15461", "calcium entry signal, replicate 1": 3.93e7, "calcium entry signal, replicate 2": 2.87e7, "resting calcium signal, replicate 1": 1.96e7, "resting calcium signal, replicate 2": 1.54e7}
{"gene knocked down": "CG32266 (GeneID 317945)", "DRSC id": "DRSC08062", "calcium entry signal, replicate 1": 3.04e7, "calcium entry signal, replicate 2": 4.10e7, "resting calcium signal, replicate 1": 1.70e7, "resting calcium signal, replicate 2": 1.89e7}
{"gene knocked down": "CG10565 (GeneID 40332)", "DRSC id": "DRSC11620", "calcium entry signal, replicate 1": 4.11e7, "calcium entry signal, replicate 2": 4.32e7, "resting calcium signal, replicate 1": 1.85e7, "resting calcium signal, replicate 2": 2.88e7}
{"gene knocked down": "CG12662 (GeneID 31825)", "DRSC id": "DRSC17865", "calcium entry signal, replicate 1": 2.76e7, "calcium entry signal, replicate 2": 2.93e7, "resting calcium signal, replicate 1": 1.41e7, "resting calcium signal, replicate 2": 1.39e7}
{"gene knocked down": "Hesr (GeneID 32800)", "DRSC id": "DRSC19965", "calcium entry signal, replicate 1": 3.34e7, "calcium entry signal, replicate 2": 2.78e7, "resting calcium signal, replicate 1": 1.74e7, "resting calcium signal, replicate 2": 1.50e7}
{"gene knocked down": "zuc (GeneID 34609)", "DRSC id": "DRSC02160", "calcium entry signal, replicate 1": 4.15e7, "resting calcium signal, replicate 1": 1.92e7}
{"gene knocked down": "JMJD7 (GeneID 39514)", "DRSC id": "DRSC09703", "calcium entry signal, replicate 1": 7.28e7, "calcium entry signal, replicate 2": 3.06e7, "resting calcium signal, replicate 1": 3.04e7, "resting calcium signal, replicate 2": 1.62e7}
{"gene knocked down": "CR10102 (GeneID 12798454)", "DRSC id": "DRSC05963", "calcium entry signal, replicate 1": 2.17e7, "calcium entry signal, replicate 2": 3.21e7, "resting calcium signal, replicate 1": 1.14e7, "resting calcium signal, replicate 2": 1.33e7}
{"gene knocked down": "CG32695 (GeneID 31918)", "DRSC id": "DRSC17975", "calcium entry signal, replicate 1": 4.24e7, "calcium entry signal, replicate 2": 5.30e7, "resting calcium signal, replicate 1": 2.01e7, "resting calcium signal, replicate 2": 2.24e7}
{"gene knocked down": "CG12935 (GeneID 36134)", "DRSC id": "DRSC06248", "calcium entry signal, replicate 1": 4.89e7, "calcium entry signal, replicate 2": 4.52e7, "resting calcium signal, replicate 1": 2.17e7, "resting calcium signal, replicate 2": 2.05e7}
{"gene knocked down": "pum (GeneID 41094)", "DRSC id": "DRSC12722", "calcium entry signal, replicate 1": 3.00e7, "calcium entry signal, replicate 2": 4.02e7, "resting calcium signal, replicate 1": 1.47e7, "resting calcium signal, replicate 2": 2.11e7}
{"gene knocked down": "pum (GeneID 41094)", "DRSC id": "DRSC12726", "calcium entry signal, replicate 1": 3.11e7, "calcium entry signal, replicate 2": 5.01e7, "resting calcium signal, replicate 1": 1.50e7, "resting calcium signal, replicate 2": 1.98e7}
{"gene knocked down": "pum (GeneID 41094)", "DRSC id": "DRSC17037", "calcium entry signal, replicate 1": 2.64e7, "calcium entry signal, replicate 2": 6.14e7, "resting calcium signal, replicate 1": 1.42e7, "resting calcium signal, replicate 2": 2.82e7}
{"gene knocked down": "pum (GeneID 41094)", "DRSC id": "DRSC17038", "calcium entry signal, replicate 1": 4.57e7, "calcium entry signal, replicate 2": 3.83e7, "resting calcium signal, replicate 1": 2.38e7, "resting calcium signal, replicate 2": 2.01e7}
{"gene knocked down": "pum (GeneID 41094)", "DRSC id": "DRSC22758", "calcium entry signal, replicate 1": 4.01e7, "calcium entry signal, replicate 2": 4.09e7, "resting calcium signal, replicate 1": 2.47e7, "resting calcium signal, replicate 2": 1.91e7}
{"gene knocked down": "pum (GeneID 41094)", "DRSC id": "DRSC22794", "calcium entry signal, replicate 1": 4.03e7, "calcium entry signal, replicate 2": 3.65e7, "resting calcium signal, replicate 1": 1.90e7, "resting calcium signal, replicate 2": 1.93e7}

Targets listed so far whose gene name begins with C or c:
{"gene knocked down": "CG32266 (GeneID 317945)", "DRSC id": "DRSC08062", "calcium entry signal, replicate 1": 3.04e7, "calcium entry signal, replicate 2": 4.10e7, "resting calcium signal, replicate 1": 1.70e7, "resting calcium signal, replicate 2": 1.89e7}
{"gene knocked down": "CG10565 (GeneID 40332)", "DRSC id": "DRSC11620", "calcium entry signal, replicate 1": 4.11e7, "calcium entry signal, replicate 2": 4.32e7, "resting calcium signal, replicate 1": 1.85e7, "resting calcium signal, replicate 2": 2.88e7}
{"gene knocked down": "CG12662 (GeneID 31825)", "DRSC id": "DRSC17865", "calcium entry signal, replicate 1": 2.76e7, "calcium entry signal, replicate 2": 2.93e7, "resting calcium signal, replicate 1": 1.41e7, "resting calcium signal, replicate 2": 1.39e7}
{"gene knocked down": "CR10102 (GeneID 12798454)", "DRSC id": "DRSC05963", "calcium entry signal, replicate 1": 2.17e7, "calcium entry signal, replicate 2": 3.21e7, "resting calcium signal, replicate 1": 1.14e7, "resting calcium signal, replicate 2": 1.33e7}
{"gene knocked down": "CG32695 (GeneID 31918)", "DRSC id": "DRSC17975", "calcium entry signal, replicate 1": 4.24e7, "calcium entry signal, replicate 2": 5.30e7, "resting calcium signal, replicate 1": 2.01e7, "resting calcium signal, replicate 2": 2.24e7}
{"gene knocked down": "CG12935 (GeneID 36134)", "DRSC id": "DRSC06248", "calcium entry signal, replicate 1": 4.89e7, "calcium entry signal, replicate 2": 4.52e7, "resting calcium signal, replicate 1": 2.17e7, "resting calcium signal, replicate 2": 2.05e7}
